Consider 10 molecules from publication PMC4827232.

The chains behind the UniProt entries cited, without tags or fusion partners.
UniProt Q9JIP4: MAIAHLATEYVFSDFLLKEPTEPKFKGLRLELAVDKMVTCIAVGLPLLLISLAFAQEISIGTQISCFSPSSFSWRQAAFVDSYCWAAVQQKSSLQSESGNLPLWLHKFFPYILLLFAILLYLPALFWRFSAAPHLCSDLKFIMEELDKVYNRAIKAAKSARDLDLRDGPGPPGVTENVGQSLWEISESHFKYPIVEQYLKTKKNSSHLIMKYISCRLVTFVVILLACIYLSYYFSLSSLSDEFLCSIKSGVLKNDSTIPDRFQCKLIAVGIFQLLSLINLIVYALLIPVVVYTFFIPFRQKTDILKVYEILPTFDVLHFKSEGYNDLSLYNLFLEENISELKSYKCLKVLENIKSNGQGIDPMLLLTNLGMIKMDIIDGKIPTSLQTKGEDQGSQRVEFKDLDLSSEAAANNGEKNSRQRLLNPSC
UniProt Q02789: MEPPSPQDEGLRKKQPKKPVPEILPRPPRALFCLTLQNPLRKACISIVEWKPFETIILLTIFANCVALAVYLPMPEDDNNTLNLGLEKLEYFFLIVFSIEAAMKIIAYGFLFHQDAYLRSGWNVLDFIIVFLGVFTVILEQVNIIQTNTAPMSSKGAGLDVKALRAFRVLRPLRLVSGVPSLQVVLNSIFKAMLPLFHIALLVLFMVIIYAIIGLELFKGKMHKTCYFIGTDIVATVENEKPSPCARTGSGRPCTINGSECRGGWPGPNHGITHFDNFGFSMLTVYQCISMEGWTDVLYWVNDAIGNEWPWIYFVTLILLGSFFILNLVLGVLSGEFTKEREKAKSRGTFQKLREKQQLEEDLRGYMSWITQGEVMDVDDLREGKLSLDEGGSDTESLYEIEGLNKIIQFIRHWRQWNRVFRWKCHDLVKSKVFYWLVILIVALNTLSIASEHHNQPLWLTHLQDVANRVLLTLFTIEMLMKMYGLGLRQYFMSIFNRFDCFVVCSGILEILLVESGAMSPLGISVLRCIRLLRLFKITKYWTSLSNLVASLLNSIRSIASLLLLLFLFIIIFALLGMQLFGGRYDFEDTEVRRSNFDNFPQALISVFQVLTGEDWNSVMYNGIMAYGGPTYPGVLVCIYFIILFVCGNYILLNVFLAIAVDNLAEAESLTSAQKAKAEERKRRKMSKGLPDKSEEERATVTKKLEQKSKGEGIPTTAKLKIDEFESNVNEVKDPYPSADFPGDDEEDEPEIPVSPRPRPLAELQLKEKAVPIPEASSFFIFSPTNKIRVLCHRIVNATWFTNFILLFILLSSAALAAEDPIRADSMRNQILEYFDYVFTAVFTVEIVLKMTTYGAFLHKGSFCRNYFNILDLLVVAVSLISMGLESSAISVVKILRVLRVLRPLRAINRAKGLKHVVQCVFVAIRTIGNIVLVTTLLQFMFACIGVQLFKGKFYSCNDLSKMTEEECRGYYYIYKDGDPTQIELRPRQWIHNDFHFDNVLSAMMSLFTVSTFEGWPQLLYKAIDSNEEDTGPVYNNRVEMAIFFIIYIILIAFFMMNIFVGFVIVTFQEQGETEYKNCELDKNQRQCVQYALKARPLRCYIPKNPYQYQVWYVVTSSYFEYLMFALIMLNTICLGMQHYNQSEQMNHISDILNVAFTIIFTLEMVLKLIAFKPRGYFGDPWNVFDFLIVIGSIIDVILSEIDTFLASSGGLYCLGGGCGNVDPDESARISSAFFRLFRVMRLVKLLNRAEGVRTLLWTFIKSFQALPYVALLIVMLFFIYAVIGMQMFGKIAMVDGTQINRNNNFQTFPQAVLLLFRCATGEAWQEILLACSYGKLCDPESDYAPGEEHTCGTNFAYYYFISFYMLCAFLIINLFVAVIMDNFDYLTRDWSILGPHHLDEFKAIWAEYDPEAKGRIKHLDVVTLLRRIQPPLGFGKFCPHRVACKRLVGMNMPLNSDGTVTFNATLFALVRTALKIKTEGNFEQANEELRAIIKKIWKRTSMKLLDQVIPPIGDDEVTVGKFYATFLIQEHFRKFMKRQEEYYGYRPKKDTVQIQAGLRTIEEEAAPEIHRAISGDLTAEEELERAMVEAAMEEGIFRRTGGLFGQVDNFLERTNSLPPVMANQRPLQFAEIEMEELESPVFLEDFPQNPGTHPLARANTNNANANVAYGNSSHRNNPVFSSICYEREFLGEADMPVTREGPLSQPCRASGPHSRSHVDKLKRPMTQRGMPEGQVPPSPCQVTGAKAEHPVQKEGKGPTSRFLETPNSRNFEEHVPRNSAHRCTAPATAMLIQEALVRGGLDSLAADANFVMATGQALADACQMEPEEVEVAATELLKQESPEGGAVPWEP
UniProt P60570: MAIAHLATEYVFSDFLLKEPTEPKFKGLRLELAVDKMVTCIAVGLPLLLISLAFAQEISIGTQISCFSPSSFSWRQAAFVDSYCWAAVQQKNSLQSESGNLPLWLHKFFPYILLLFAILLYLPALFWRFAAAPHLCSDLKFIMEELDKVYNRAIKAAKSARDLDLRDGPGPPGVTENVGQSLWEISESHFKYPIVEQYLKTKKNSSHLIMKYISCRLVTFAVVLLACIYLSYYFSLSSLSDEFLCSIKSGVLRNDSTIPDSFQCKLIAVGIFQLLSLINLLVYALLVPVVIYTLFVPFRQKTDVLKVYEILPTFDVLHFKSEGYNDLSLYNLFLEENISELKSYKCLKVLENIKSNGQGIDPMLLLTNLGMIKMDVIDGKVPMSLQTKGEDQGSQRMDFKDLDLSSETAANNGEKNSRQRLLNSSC
UniProt P11531: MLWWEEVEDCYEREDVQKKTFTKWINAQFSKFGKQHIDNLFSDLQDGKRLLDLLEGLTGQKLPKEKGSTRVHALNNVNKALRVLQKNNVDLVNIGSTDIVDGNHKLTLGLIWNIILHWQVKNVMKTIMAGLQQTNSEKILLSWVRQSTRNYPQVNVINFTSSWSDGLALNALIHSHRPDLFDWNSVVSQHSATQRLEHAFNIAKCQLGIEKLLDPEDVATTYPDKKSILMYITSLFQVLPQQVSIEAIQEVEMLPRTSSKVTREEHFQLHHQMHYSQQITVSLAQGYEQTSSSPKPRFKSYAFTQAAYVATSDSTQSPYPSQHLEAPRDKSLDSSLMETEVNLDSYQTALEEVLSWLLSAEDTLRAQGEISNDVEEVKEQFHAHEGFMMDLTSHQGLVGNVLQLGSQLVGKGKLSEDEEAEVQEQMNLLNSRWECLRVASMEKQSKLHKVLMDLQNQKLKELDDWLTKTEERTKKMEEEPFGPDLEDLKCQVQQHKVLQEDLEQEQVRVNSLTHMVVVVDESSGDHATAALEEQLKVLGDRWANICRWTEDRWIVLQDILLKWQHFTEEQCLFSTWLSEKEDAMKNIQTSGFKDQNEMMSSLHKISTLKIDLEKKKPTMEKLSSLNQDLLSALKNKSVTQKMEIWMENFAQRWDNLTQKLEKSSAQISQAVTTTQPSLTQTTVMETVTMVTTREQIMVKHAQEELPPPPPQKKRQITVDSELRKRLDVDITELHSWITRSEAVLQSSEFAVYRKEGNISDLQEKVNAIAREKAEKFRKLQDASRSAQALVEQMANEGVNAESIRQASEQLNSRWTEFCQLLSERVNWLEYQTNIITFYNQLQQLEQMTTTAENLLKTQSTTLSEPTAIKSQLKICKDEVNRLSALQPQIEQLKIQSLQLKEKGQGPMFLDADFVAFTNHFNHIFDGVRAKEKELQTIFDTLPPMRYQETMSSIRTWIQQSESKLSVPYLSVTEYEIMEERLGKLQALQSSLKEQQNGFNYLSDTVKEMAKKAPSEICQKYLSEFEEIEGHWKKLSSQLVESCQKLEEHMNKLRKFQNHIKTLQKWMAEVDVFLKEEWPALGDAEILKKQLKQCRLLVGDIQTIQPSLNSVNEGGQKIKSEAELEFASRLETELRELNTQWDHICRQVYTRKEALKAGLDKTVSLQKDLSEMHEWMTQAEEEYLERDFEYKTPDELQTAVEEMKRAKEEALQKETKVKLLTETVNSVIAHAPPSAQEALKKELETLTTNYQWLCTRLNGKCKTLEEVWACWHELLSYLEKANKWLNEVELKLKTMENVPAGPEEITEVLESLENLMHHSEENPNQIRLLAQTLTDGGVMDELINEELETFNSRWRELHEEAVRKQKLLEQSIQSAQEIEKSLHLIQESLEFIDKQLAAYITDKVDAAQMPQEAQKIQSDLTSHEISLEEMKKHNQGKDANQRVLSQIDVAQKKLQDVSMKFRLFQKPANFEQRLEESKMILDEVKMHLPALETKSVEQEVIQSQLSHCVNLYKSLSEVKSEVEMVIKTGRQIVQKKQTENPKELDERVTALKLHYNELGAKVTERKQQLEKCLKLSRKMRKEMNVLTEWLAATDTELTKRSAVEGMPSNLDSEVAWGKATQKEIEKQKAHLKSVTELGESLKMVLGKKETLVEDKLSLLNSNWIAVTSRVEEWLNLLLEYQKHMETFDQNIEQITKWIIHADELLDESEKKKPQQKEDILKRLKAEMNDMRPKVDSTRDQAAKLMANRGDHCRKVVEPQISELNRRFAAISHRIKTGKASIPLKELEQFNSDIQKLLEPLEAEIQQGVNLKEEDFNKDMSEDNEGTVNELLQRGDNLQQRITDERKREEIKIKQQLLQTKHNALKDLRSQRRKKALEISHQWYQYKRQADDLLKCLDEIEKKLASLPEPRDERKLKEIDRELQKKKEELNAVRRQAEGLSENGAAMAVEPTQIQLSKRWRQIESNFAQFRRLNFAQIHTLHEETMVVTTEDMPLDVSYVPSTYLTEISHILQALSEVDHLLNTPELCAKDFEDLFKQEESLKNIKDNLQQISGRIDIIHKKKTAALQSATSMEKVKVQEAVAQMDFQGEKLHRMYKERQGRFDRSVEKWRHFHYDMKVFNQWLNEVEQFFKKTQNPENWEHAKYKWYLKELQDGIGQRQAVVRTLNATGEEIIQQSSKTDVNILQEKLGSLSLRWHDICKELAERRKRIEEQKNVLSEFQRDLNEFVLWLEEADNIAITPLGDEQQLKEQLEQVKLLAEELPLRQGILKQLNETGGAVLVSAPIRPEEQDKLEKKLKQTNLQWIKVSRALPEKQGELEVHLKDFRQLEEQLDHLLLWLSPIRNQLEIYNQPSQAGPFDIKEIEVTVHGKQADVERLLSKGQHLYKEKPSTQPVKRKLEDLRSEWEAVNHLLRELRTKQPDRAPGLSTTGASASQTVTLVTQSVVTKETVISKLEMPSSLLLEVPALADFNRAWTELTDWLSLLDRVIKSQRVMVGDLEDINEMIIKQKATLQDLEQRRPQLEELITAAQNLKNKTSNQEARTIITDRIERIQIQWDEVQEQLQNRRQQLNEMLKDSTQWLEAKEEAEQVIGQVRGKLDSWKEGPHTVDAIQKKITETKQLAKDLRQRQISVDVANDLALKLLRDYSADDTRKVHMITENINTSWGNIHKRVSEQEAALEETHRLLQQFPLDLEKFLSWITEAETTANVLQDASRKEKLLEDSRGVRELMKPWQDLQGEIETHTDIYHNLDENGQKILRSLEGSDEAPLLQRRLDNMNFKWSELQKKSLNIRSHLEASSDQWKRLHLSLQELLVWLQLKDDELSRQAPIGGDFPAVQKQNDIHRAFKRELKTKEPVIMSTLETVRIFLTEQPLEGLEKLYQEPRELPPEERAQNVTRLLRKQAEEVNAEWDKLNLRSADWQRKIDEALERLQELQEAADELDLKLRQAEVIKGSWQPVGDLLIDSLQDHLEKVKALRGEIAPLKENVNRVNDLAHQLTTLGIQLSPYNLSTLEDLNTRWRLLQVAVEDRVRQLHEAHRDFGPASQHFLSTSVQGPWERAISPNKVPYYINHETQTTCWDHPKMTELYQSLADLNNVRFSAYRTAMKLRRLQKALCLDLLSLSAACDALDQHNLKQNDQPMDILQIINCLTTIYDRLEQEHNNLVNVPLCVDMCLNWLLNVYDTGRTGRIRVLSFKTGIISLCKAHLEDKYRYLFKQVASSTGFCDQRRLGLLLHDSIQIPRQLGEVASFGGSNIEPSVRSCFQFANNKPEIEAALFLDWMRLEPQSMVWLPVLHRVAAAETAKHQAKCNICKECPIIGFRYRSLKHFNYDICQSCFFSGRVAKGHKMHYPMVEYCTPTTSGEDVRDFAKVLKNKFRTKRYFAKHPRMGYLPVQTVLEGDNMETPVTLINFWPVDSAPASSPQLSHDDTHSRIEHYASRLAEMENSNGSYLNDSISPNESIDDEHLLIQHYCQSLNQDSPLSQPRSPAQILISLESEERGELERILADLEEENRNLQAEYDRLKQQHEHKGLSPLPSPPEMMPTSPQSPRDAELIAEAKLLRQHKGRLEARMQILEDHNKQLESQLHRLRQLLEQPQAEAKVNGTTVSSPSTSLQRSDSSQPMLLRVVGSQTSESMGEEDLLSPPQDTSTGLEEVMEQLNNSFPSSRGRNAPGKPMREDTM

The target in test [1] is pannexin 1 (Panx1), mouse (mouse (endogenous in BalbC/C57 muscle triads and FDB fibers)) (UniProt Q9JIP4). Kind of test: co-IP; triad-enriched fractions (100 μg protein) from adult BalbC mouse back and hind limb muscles, solubilized in lysis buffer with 0.1 % Nonidet P-40, 140 mM NaCl, pH 7.4; pre-cleared; antibody 4 h, protein A/G agarose; immunoblot.
Test [2] addresses dihydropyridine receptor (DHPR, Cav1.1), mouse (mouse (endogenous in BalbC/C57 muscle triads and FDB fibers)) (UniProt Q02789). The test is described as above.
The target is the same in test [3]. Kind of test: proximity ligation; in situ PLA (Duolink II), isolated mouse FDB fibers; dots when the two proteins are closer than 40 nm; confocal z-stacks.
In test [4] the target is pannexin 1 (Panx1), mouse (mouse (endogenous in BalbC/C57 muscle triads and FDB fibers)) (UniProt Q9JIP4). Nature of the test: native gel or EMSA; 2D blue native SDS-PAGE of triad samples (rat, BalbC mouse, C57 mouse) solubilized with digitonin; first dimension native 3-8 % gel at 4 °C, second dimension SDS-PAGE after 2-mercaptoethanol; immunoblot, proteins in a same vertical line.

In test [5] the target is dihydropyridine receptor (DHPR, Cav1.1), mouse (mouse (endogenous in BalbC/C57 muscle triads and FDB fibers)) (UniProt Q02789). Described as above.
Test [6] addresses dihydropyridine receptor (DHPR, Cav1.1), rat (rat (endogenous in rat muscle triads, rat myotubes and L6 cells)) (UniProt Q02485). Kind of test: proximity ligation; in situ PLA (Duolink II), intact L6-Panx1 myotubes; dots when the two proteins are closer than 40 nm.
The target is the same in test [7]. Kind of test: co-IP; whole lysates from L6-Panx1 myotubes; immunoprecipitation with anti-Panx1, anti-DHPR and anti-P2Y2R antibodies; immunoblot.
For test [8], the target named is Panx1 fused to the Twin-Strep-tag at the C terminus, in L6-Panx1 cells (UniProt Q96RD7). The description is as above.
Test [9] has as its target dihydropyridine receptor (DHPR, Cav1.1), rat (rat (endogenous in rat muscle triads, rat myotubes and L6 cells)) (UniProt Q02485). Nature of the test: co-IP; cell extracts from newborn-derived rat myotubes; antibody and protein A/G agarose; immunoblot.
Test [10] deals with pannexin 1 (Panx1), rat (rat (endogenous in rat muscle triads and rat myotubes)) (UniProt P60570). Described as above.
Test [11] concerns the target dihydropyridine receptor (DHPR, Cav1.1), rat (rat (endogenous in rat muscle triads, rat myotubes and L6 cells)) (UniProt Q02485). Nature of the test: native gel or EMSA; 2D blue native SDS-PAGE of triad samples (rat, BalbC mouse, C57 mouse) solubilized with digitonin; first dimension native 3-8 % gel at 4 °C, second dimension SDS-PAGE after 2-mercaptoethanol; immunoblot, proteins in a same vertical line. Background: A gel shift assay detects complexes by their altered migration in electrophoresis.

The target of test [12] is pannexin 1 (Panx1), rat (rat (endogenous in rat muscle triads and rat myotubes)) (UniProt P60570). Described as above.
Test [13] deals with P2Y2 receptor (P2Y2R), mouse (mouse (endogenous in BalbC/C57 muscle triads and FDB fibers)) (UniProt P35383). Kind of test: co-IP; triad-enriched fractions (100 μg protein) from adult BalbC mouse back and hind limb muscles, solubilized in lysis buffer with 0.1 % Nonidet P-40, 140 mM NaCl, pH 7.4; pre-cleared; antibody 4 h, protein A/G agarose; immunoblot.
Test [14] addresses P2Y2 receptor (P2Y2R), rat (rat (endogenous in rat muscle triads, rat myotubes and L6 cells)) (UniProt P41232). Kind of test: co-IP; whole lysates from L6-Panx1 myotubes; immunoprecipitation with anti-Panx1, anti-DHPR and anti-P2Y2R antibodies; immunoblot. (Immunoblotting shows a protein as a band on a membrane.)
The target is the same in test [15]. Kind of test: co-IP; cell extracts from newborn-derived rat myotubes; antibody and protein A/G agarose; immunoblot.
Test [16] has as its target dihydropyridine receptor (DHPR, Cav1.1), mouse (mouse (endogenous in BalbC/C57 muscle triads and FDB fibers)) (UniProt Q02789). Nature of the test: native gel or EMSA; blue native SDS-PAGE of mouse triads, data not shown.
Test [17] concerns the target P2Y2 receptor (P2Y2R), mouse (mouse (endogenous in BalbC/C57 muscle triads and FDB fibers)) (UniProt P35383). Kind of test: proximity ligation; in situ PLA (Duolink II), isolated mouse FDB fibers; dots when the two proteins are closer than 40 nm; confocal z-stacks.
Test [18] concerns the target pannexin 1 (Panx1), mouse (mouse (endogenous in BalbC/C57 muscle triads and FDB fibers)) (UniProt Q9JIP4). Described as above.

No constants are given. Whether binding was seen depends on the method and setting. For some assays here: In cells and extracts the contact can be indirect. Some results given as binding are weak or reduced against the parent protein; the word gives no strength.

As for “P2Y2 receptor (P2Y2R), mouse (from UniProt P35383 1-373)”, the binding entry in [1], in test [2], in test [3], in test [4] and in test [5] was “binds” each time.

In the case of “P2Y2 receptor (P2Y2R), rat (from UniProt P41232 1-374)”, the binding result in [6], in test [7], in test [8], in [9], in test [10] and in [11] was “binds” in each case. The binding result in [12] is given as “binds”.

For “Panx1 fused to the Twin-Strep-tag at the C terminus, in L6-Panx1 cells (from UniProt Q96RD7 1-426)”, the binding result in test [6] and in [7] was “binds” each time.

“dystrophin (Dys), mouse (from UniProt P11531 1-3678)”: the binding result in test [13], in [1] and in [2] was “binds” in each case.

With “dystrophin (Dys), rat (from UniProt P11530 1-3677)”, the binding result in test [14], in test [7], in [8], in test [15], in test [9] and in test [10] was “binds” each time.

Consider “pannexin 1 (Panx1), mouse (from UniProt Q9JIP4 1-426)”, for which the binding result in [2], in test [3] and in [5] was “binds” each time.

In the case of “pannexin 1 (Panx1), rat (from UniProt P60570 1-426)”, the binding entry in test [9] and in test [11] was “binds” in each case.

Take “ryanodine receptor 1 (RyR1), mouse (from UniProt E9PZQ0 1-5035)”: the binding entry in test [16] is reported as “binds”.

B1: Lamina-associated polypeptide 2 (Lap2), rat (protein, UniProt Q62733 1-452)
chain: MPEFLEDPSVLTKDKLKSELVANNVTLPAGEQRKDVYVQLYLQHLTARNRPPLAAGANSKGPPDFSSDEEREPTPVLGSGASVGRGRGAVGRKATKKTDKPRPEDKDDLDVTELSNEELLEQLVRYGVNPGPIVGTTRKLYEKKLLKLREQGAESRSSTPLPTVSSSAENTRQNGSNDSDRYSDNDEDSKIELKLEKREPLKGRAKTPVTLKQRRIEHNQSYSEAGVTETEWTSGSSKGGPLQALTRESTRGSRRTPRRRVEPSQHFRVDGAVISESTPIAETIKASSNDSLVANRLTGNFKHASSILPITEFSDITRRTPKKPLTRAEVGEKTEERRVERDILKEMFPYEASTPTGISASCRRPIKGAAGRPLELSDFRMEESFSSKYVPKYVPLADVKSEKTKKGRSVPMWIKMLLFALVAGFLFLVYQAMETNQGNPFTNFLQDTKISN
With B1, the binding result in test [6] was “no binding”.

B2: caveolin-3 (Cav3), mouse (protein, UniProt P51637 1-151)
chain: MMTEEHTDLEARIIKDIHCKEIDLVNRDPKNINEDIVKVDFEDVIAEPEGTYSFDGVWKVSFTTFTVSKYWCYRLLSTLLGVPLALLWGFLFACISFCHIWAVVPCIKSYLIEIQCISHIYSLCIRTFCNPLFAALGQVCSNIKVVLRREG
Turning to B2, the binding entry in test [17], in [18], in test [3], in test [4] and in test [5] was “binds” throughout.
